Measurements from patent US20070232701A1, “Synergistic compositions useful as cytostatic, bacteriostatic and/or virostatic agents” (priority 2006, published 2007).
At least one structure is not confirmed: it was looked up by name or label, or the drawing left a doubt.

Test system: glioma cell line D-54MG
Assay: Cell death in combination with Rapamycin
Assay type: cell-based, human
Details: Rapamycin 1 nM to 10000 nM; composition 1 μg/ml

Compound: CO[C@H]1C[C@@H]2CC[C@@H](C)[C@@](O)(O2)C(=O)C(=O)N2CCCC[C@H]2C(=O)O[C@H]([C@H](C)C[C@@H]2CC[C@@H](O)[C@H](OC)C2)CC(=O)[C@H](C)/C=C(\C)[C@@H](O)[C@@H](OC)C(=O)[C@H](C)C[C@H](C)/C=C/C=C/C=C/1C [Rapamycin]
- cell death (percentage of dead cells): does not produce cell death
